Test results: the supplement of paper PMC10849652
This is one part of the list.

Chains of the proteins cited; added tags and fusions are not shown. Lines headed by an entry give the natural chain unless they say otherwise; changes in a name come on top.
UniProt Q9BRD0: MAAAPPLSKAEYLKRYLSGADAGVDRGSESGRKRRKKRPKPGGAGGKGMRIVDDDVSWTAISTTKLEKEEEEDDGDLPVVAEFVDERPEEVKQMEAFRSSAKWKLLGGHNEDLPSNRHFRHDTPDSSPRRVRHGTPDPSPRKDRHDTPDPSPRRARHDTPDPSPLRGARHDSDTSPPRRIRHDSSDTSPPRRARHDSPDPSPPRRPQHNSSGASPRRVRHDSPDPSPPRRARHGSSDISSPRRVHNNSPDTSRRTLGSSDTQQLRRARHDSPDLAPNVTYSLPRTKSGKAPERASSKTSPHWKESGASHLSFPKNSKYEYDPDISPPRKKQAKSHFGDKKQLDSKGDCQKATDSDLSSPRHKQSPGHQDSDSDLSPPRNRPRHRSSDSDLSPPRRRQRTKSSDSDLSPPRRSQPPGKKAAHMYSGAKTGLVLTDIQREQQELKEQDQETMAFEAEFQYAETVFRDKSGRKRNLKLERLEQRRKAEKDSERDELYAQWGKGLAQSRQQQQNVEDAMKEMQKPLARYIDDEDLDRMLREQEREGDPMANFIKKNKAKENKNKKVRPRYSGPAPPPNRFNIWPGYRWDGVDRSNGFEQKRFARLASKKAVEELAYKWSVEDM
UniProt Q9BSJ5: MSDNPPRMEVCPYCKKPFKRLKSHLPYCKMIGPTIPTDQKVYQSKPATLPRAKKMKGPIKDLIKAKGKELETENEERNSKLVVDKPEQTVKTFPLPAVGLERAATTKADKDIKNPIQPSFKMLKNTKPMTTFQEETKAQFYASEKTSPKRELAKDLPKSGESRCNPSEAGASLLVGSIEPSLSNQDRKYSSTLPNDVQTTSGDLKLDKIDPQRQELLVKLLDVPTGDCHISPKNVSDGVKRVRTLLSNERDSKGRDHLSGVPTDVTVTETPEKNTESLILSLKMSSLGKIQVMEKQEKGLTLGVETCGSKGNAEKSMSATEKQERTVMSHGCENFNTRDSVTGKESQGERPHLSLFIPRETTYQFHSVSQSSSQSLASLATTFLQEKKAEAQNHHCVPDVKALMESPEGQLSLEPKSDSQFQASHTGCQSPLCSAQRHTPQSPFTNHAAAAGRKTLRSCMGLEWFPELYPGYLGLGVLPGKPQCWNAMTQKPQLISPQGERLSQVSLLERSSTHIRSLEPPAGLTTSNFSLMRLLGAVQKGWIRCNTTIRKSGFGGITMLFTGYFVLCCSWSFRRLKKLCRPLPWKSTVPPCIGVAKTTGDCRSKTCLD
UniProt Q5SQH8: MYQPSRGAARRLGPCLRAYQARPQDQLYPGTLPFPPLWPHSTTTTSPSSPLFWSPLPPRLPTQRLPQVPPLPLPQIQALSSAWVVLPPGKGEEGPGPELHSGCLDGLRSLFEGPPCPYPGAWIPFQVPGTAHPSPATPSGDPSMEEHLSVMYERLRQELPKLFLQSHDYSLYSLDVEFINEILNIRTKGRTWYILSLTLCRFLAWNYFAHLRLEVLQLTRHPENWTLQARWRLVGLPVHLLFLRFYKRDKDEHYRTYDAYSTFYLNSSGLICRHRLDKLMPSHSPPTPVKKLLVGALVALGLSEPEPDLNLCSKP
UniProt Q9Y426: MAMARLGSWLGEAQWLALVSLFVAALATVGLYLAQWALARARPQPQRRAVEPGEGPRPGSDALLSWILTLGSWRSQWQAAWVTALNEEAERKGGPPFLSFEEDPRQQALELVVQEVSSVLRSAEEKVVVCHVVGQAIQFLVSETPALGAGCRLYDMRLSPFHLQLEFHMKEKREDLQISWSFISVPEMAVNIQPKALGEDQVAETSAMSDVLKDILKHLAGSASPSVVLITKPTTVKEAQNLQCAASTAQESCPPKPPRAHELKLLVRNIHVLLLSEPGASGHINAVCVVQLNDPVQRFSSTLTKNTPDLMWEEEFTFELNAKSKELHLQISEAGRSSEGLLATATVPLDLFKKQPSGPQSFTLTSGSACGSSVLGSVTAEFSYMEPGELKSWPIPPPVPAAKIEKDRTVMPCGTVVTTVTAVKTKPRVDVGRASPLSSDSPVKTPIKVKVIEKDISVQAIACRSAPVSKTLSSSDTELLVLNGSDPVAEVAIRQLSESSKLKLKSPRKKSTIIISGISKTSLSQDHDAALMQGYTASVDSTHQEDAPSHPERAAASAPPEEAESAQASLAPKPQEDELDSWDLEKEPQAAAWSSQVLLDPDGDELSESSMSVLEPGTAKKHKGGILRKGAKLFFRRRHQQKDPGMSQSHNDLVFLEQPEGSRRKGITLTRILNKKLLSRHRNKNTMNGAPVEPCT
UniProt Q99622: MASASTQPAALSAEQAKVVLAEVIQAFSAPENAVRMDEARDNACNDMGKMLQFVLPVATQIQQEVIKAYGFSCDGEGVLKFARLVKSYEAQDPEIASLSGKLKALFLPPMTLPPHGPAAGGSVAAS
UniProt Q9H9S4: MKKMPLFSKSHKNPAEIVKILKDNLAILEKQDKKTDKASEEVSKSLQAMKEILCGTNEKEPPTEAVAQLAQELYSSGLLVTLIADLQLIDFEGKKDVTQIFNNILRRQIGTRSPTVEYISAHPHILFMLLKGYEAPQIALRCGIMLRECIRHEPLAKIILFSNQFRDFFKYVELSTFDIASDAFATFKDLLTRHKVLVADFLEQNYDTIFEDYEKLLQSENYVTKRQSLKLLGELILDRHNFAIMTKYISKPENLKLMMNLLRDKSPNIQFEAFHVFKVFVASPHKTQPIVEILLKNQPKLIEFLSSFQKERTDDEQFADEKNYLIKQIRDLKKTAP
UniProt Q3KRA6: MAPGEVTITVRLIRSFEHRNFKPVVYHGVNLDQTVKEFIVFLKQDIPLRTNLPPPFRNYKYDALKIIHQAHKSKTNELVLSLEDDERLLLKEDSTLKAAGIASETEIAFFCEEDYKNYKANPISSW
UniProt Q7Z7L8: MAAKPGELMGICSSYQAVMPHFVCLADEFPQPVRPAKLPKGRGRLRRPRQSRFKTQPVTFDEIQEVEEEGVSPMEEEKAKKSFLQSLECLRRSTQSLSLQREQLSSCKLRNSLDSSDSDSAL
UniProt Q86VG3: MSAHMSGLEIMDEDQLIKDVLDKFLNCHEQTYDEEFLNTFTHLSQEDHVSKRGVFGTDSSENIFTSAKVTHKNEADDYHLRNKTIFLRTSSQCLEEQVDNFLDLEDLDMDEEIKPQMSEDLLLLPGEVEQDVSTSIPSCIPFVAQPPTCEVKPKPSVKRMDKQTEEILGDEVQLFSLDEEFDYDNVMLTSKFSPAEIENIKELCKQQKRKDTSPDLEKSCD
UniProt P0DMB2: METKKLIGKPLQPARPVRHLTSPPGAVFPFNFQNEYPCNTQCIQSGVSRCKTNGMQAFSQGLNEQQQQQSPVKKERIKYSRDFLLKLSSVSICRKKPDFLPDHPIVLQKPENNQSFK
UniProt Q32NC0: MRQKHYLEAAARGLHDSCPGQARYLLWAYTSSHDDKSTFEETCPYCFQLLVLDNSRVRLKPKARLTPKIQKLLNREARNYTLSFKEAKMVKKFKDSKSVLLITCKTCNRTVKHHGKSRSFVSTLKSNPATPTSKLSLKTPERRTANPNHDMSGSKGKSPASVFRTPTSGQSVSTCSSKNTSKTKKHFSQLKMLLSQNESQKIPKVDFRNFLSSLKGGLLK

Tests used:
Test in all cases: log2 fold change, soluble protein after heating vs DMSO (PISA); higher = thermal stabilisation; K562 lysate, 10 uM; active = over 0.2 and 3.5 SD of the protein, either way, in both replicates (recomputed)
[1] = compound: C#Cc1cccc(Nc2ncnc3cc(OCCOC)c(OCCOC)cc23)c1 [erlotinib]
Method in brief: (§1)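 Log-two fold change in thermal stability relative to solvent controls is reported from duplicates. For each sample, crude K562 extract from dounce-homogenised pellets in PBS pH 7.4 with 1 mM MgCl2, at 1 mg/mL protein, was treated with 10 μM compound for 30 min. Aliquots heated for 3 min across 48°C-58°C were pooled, brought to 0.5% NP-40 at 4°C and cleared at 21,000xg for 90 min. The supernatant was quantified by TMTpro 16plex LC-MS/MS with channel sums equalised.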

[2] = compound: C1=CC(=CC=C1C2=NC3=C(N2)C=C(C=C3)C(=O)N)OC4=CC=C(C=C4)Cl
Method in brief: as §1

[3] = compound: C1=CC2=NC=CN=C2C=C1/C=C/3\C(=O)NC(=O)S3
Method in brief: as §1

[4] = compound: C1=CC=C(C=C1)C2=NC(=C(N2)C3=CC=NC=C3)C4=CC(=C(C=C4)Cl)O
Method in brief: as §1

[5] = compound: C1CCN(C1)C(=O)NC2=CC=CC(=C2)NC3=NC=C(C(=N3)NCCC4=CN=CN4)Br
Method in brief: as §1

[6] = compound: C1CN(CCC1(CC2=CC=C(C=C2)Cl)N)C3=NC=NC4=C3C=CN4
Method in brief: as §1

[7] = compound: C1COCCN1CCN2C3=CC=CC=C3N=C2NC(=O)C4=CC(=CC=C4)[N+](=O)[O-] [IRAK-1-4 Inhibitor I]
Method in brief: as §1

[8] = compound: C=CC(=O)N1CCC[C@@H](n2nc(-c3ccc(Oc4ccccc4)cc3)c3c(N)ncnc32)C1 [ibrutinib]
Method in brief: as §1

[9] = compound: CC(C)(C)Cn1c(N)nc2ccc(-c3[nH]c(C(C)(C)C)nc3-c3ccc(F)cc3)nc21 [ralimetinib]
Method in brief: as §1

[10] = compound: CC(C)(O)CC(=O)NCCn1ccc2ncnc(Nc3ccc(Oc4cccc(C(F)(F)F)c4)c(Cl)c3)c21
Method in brief: as §1

[11] = compound: CC(C)C1=C2N=C(C=C(N2N=C1)NCC3=CC=CC=C3)NCCCCCCN
Method in brief: as §1

[12] = compound: CC1=C(C(CC(=O)N1)C2=CC=C(C=C2)C(F)(F)F)C(=O)NC3=C(C=C4C(=C3)C=NN4)F
Method in brief: as §1

[13] = compound: CC1=C(C2=C(C=C1)C(=O)C3=CC=CC=C3N2CCCN)C
Method in brief: as §1

[14] = compound: CC1=C(C=C(C=C1)NC(=O)C2=CC(=CC=C2)C(C)(C)C#N)NC3=CC4=C(C=C3)N=CN(C4=O)C
Method in brief: as §1

[15] = compound: CC1=C(C=C(C=C1)NC(=O)C2=CC(=CC=C2)N(C)C)NC(=O)C3=CC=C(C=C3)O
Method in brief: as §1

[16] = compound: C/C(=N\NC(=O)C1=CC(=CC=C1)S(=O)(=O)N2CCOCC2)/C3=C(C=CC(=C3)Cl)O
Method in brief: as §1

[17] = compound: C1=CC2=C(C=CC(=C2)/C=C\3/C(=O)NC(=NCC4=CC=CS4)S3)N=C1
Method in brief: as §1

[18] = compound: C1=CC=C2C(=C1)C3=NNC4=CC=CC(=C43)C2=O
Method in brief: as §1

[19] = compound: CC(=O)c1cnc2ccc(-c3cc(Cl)c(O)c(Cl)c3)nc2c1N[C@H]1CC[C@H](CN(C)C)CC1
Method in brief: as §1

[20] = compound: CC1=CC=C(C=C1)SC2=C3C=C(SC3=CN=C2)C(=O)N
Method in brief: as §1

Measured: log2 fold change

BUD13 (UniProt Q9BRD0)
inactive: [1] -0.04 | [2] -0.02 | [3] 0.054 | [4] 0.054 | [5] -0.046 | [6] -0.162 | [7] -0.066 | [8] 0.07 | [9] 0.033 | [10] 0.034 | [11] -0.051 | [12] -0.051 | [13] -0.219 | [14] 0.013 | [15] -0.013

C17orf80 (UniProt Q9BSJ5)
inactive: [1] -0.115 | [16] 0.265 | [2] 0.064 | [17] -0.027 | [18] -0.052 | [19] -0.063 | [11] 0.109 | [14] -0.065 | [20] -0.003

C6orf136 isoform 4 (UniProt Q5SQH8)
inactive: [1] 0.105 | [16] -0.856 | [2] -0.11 | [17] -0.015 | [4] -0.076 | [18] 0.043 | [5] 0.042 | [6] -0.126 | [7] 0.121 | [19] 0.016 | [9] 0 | [10] 0.016 | [11] -0.181 | [13] -0.226 | [15] 0.028 | [20] 0.12

C12orf73 (UniProt Q69YU5)
inactive: [1] 0.009 | [2] 0.004 | [3] 0.043 | [4] -0.019 | [7] 0.094 | [8] 0.06 | [19] -0.121 | [9] 0.051 | [10] -0.071 | [11] -0.064 | [12] -0.024 | [13] 0.001 | [14] 0.09 | [15] 0.038 | [20] 0.007

C2CD2 (UniProt Q9Y426)
inactive: [1] -0.063 | [2] 0.108 | [3] -0.089 | [4] 0.08 | [5] -0.069 | [6] 0.138 | [7] -0.005 | [8] 0.063 | [9] 0.04 | [10] -0.117 | [11] -0.08 | [13] -0.041 | [14] -0.033 | [15] -0.068

C12orf57 (UniProt Q99622)
inactive: [1] 0.012 | [16] -0.39 | [2] 0.159 | [17] -0.062 | [18] 0.021 | [11] 0.078 | [12] -0.063 | [13] 0.062 | [14] 0.047

CAB39L (UniProt Q9H9S4)
inactive: [1] 0.021 | [16] -0.197 | [2] -0.01 | [17] 0 | [3] -0.005 | [4] 0.069 | [18] -0.009 | [7] 0.027 | [8] 0.019 | [19] -0.023 | [9] -0.015 | [10] -0.079 | [11] -0.053 | [12] -0.023 | [13] -0.158 | [14] 0.114 | [15] 0.033 | [20] -0.032

C2orf76 (UniProt Q3KRA6)
inactive: [1] -0.013 | [2] -0.009 | [3] 0.089 | [4] 0.064 | [5] 0.025 | [6] -0.002 | [7] 0.001 | [8] 0.015 | [19] -0.019 | [9] 0.108 | [10] -0.017 | [11] -0.026 | [12] 0.061 | [13] -0.014 | [14] 0.019 | [15] -0.008 | [20] -0.013

C11orf96 (UniProt Q7Z7L8)
inactive: [1] -0.127 | [2] -0.025 | [3] 0.019 | [4] 0.097 | [7] -0.046 | [8] 0.097 | [19] 0.111 | [9] 0.1 | [10] 0 | [11] -0.057 | [12] -0.119 | [13] -0.027 | [14] -0.015 | [15] 0.062 | [20] -0.007

C11orf74 (UniProt Q86VG3)
inactive: [1] -0.182 | [16] 0.116 | [2] 0.121 | [17] -0.182 | [4] 0.12 | [18] -0.258 | [5] 0.008 | [6] -0.125 | [7] -0.018 | [9] 0.008 | [10] 0.035 | [11] -0.005 | [13] 0.017 | [14] -0.095 | [15] 0.012

CAPNS1 (UniProt K7ES78)
inactive: [1] 0.193 | [16] -0.23 | [2] 0.019 | [17] -0.275 | [4] -0.048 | [18] 0.047 | [7] -0.09 | [19] 0.028 | [9] 0.061 | [10] -0.196 | [11] -0.101 | [13] 0.025 | [14] 0.148 | [15] -0.105 | [20] -0.075

C8orf88 (UniProt P0DMB2)
inactive: [1] -0.006 | [2] -0.185 | [3] 0.028 | [4] -0.003 | [7] -0.013 | [8] -0.004 | [9] 0.06 | [10] 0.047 | [11] -0.05 | [13] 0.006 | [14] 0.052 | [15] 0.022

C18orf21 (UniProt Q32NC0)
inactive: [1] -0.039 | [2] -0.057 | [3] -0.125 | [4] -0.025 | [7] -0.061 | [8] -0.025 | [19] 0.115 | [9] 0.053 | [10] -0.092 | [11] 0.099 | [12] -0.004 | [13] -0.09 | [14] -0.045 | [15] 0.102 | [20] 0.109

Copied from above (2 entries):
C2CD2 (UniProt Q9Y426)
inactive: [1] -0.063 | [2] 0.108 | [3] -0.089 | [4] 0.08 | [5] -0.069 | [6] 0.138 | [7] -0.005 | [8] 0.063 | [9] 0.04 | [10] -0.117 | [11] -0.08 | [13] -0.041 | [14] -0.033 | [15] -0.068

C12orf57 (UniProt Q99622)
inactive: [1] 0.012 | [16] -0.39 | [2] 0.159 | [17] -0.062 | [18] 0.021 | [11] 0.078 | [12] -0.063 | [13] 0.062 | [14] 0.047
